In PubChem BioAssay AID1508600 (Functional Genomics Laboratory (NCATS/FGL), 2020):
In all, about 53,000 sequences went through this assay and about 3,700 (7%) were called active.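 The calls were made as follows: active = gene knockdowns whose robust z-score for IL-1 alpha signal is at least 2 or at most -2, so actives lie on both sides; inactive = the rest.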 Some of the results follow.

experiment: Components of the Cytosolic LPS Sensing Pathway: Gene Identification via Genome-wide siRNA Screen; settings: RAW264.7 macrophages, IL-1a HTRF, actives lie on both sides, screened at 100 nM (by protocol), cells primed 5 h with Pam3CSK4 first;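 also: robust z of the log signal after scaling to non-targeting control siRNA wells of the plate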
Outline: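 RAW264.7; siRNA 100 nM final, RNAiMAX, 48h 37 degrees C; Pam3CSK4 5 h; LipidA + TransIT-TKO 24 h; IL-1a HTRF; CellTiter-Glo viability; robust z vs negative-control median.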

Sequence | z-score
GCAAGUACAACCAUUGGUUTT against Bco1 | inactive: 0.555
GGCCAAGAUCAUCUUUGUGTT against Ak1 | inactive: -0.714
GGAACACAUCAACAUUCACTT against Cttn | inactive: 0.364
GGAAGUGAAGAUGAUGAAUTT against Cpsf3 | inactive: -0.831
GGAGCUGCUAUAGAAGUACTT against Ankrd23 | inactive: 0.41
GCUGUUAUUCAAGGAAUUCTT against Lyrm7 | inactive: 0.537
GCAAGAUCCAGAACACUCATT against Adora1 | inactive: -0.781
CCAGAUGCAGUCACAAGUCTT against Klf4 | inactive: 0.843
GGGAAAAAGAACAAGAUCATT against Cep57l1 | inactive: -0.799
GCUAAUUUAUCCAAAGCCCTT against Dcun1d3 | inactive: 0.213
GGAAGUCCUGGACAUUCAGTT against Nfkbie | active: 5.66
GGUGUCUGCCUUACCAUAUTT against Dyrk1a | inactive: 0.581
GAAAGAGAGUAAAGAGCCGTT against Ly6i | inactive: -1.24
GCCAUACGAUCUGCAUUUCTT against Zbtb38 | inactive: -1.85
GGACAUUUUUGACCACAUATT against Nat1 | inactive: 0.19
GGCAGCACAAGAAAAAGAATT against Arid5a | inactive: -0.723
GGCUUUCCGCGCUAUUGAUTT against Pcmtd2 | inactive: -0.027
GCAAUGUCGCCAAACGUAATT against Ikzf1 | inactive: 0.457
CGUGCCUUACAAUUAUUCUTT against Chodl | inactive: 0.379
GGAGGUGGGUUUAUUAUACTT against Rab3b | inactive: 0.151
GCUGCGUGAACUCAACAUCTT against Rps7 | inactive: 0.484
CCGUAUCAUAACUAUCGCGTT against Zc3h18 | inactive: -0.451
GGUUAUGUUUUGUCACUCUTT against Slc38a10 | inactive: -0.594

Sequence | z-score
GGGAGACUGUGAAGCUUUATT against Elk4 | active: 3.22
CGUACUCCAACAACACUUUTT against Pdzd8 | inactive: -0.503
GGGCUUUGUGGAUGCGAUUTT against Exoc6 | inactive: 0.549
GGCUUGAAUCACCAACCAGTT against Sgcz | inactive: 0.224
CCAGCAUUCACCUGACAAATT against Kif24 | inactive: 0.348
GGAAGAAAAAUUGAAACACTT against Palmd | inactive: -0.801
GGAAGGUACAGGAAUCUCUTT against Arl6 | inactive: 1.1
CGUUUGCUGGGUAUCAAUATT against Miox | inactive: 0.0725
CCCAUGGCAAGUCCACACUTT against Phf2 | inactive: 0.309
GGAAGACGUGAGAACAGCATT against Zfp704 | inactive: -0.224
GGUGUGAGGAUCCUAGAGUTT against Ift22 | inactive: -0.956
GCUCUGUGAGCGAAAGUUCTT against Synpo2 | inactive: 1.72
GGACAAAAACAAACAUGAGTT against Vwa3a | inactive: -0.665
GCACAGCACUGCCUAAUGUTT against Vmn2r10 | inactive: -0.133
GGACUUGCUUUGGACACAUTT against Cd248 | inactive: 0.15
GGAAAUGAGUCUCAACCAGTT against Larp4b | inactive: 1.2
GUUGUAUUUCUUUGUCCUCTT against Olfr1097 | active: 2.21
GGGAUCAUUAAACUUUUCCTT against Taf11 | inactive: 0.46
GGCUGAUGGAUUCUUAUUGTT against Ostn | inactive: -0.739
GGCCUUGAAGAUCAUGAUCTT against Asb2 | inactive: 0.378
CCGACUACAGCAUGUAUAUTT against Lcn9 | inactive: -0.436
GCUUCACUCCACCUUUCAGTT against Prkcg | inactive: 0.767
GGUGCGAAGGAAAUUGCACTT against Mrps26 | inactive: 1

Given tab-delimited: entries from further up
Sequence	z-score
GGCUUGAAUCACCAACCAGTT against Sgcz	inactive: 0.224
CCAGCAUUCACCUGACAAATT against Kif24	inactive: 0.348
GGAAGAAAAAUUGAAACACTT against Palmd	inactive: -0.801

(list continues)

Sequence | z-score
CUUGGUGGAUGAAAGAUUCTT against Tdpoz2 | inactive: -0.776
CCCUACAUAUAUCAAGAUUTT against Ephb6 | inactive: -0.896
GCUACUGAACGAGAAUGCCTT against Zc3h12a | inactive: 0.394
GGUCUUGAUGGUAGAGAGCTT against Strc | inactive: 1.12
GGUGAUGAUUUAAGAAUCCTT against Sez6 | inactive: 0.00556
GGAUGGAGAAGAUUUAAUGTT against Cul1 | inactive: -0.766
GGUAUCACAUCAACAGGCCTT against Klk1b8 | inactive: 0.37
GUGAGAAAUUCAAUCUUGGTT against Gstm3 | inactive: 0.203
GGAUACUUUAUGGUAUUUCTT against 9130023H24Rik | inactive: 1.45
GGGAGUCGUAUUUAUAUUCTT against Itga5 | inactive: -0.154
GGUACACAACCAUCCUUGATT against Olfr600 | active: -2.33
GGACUCUCACCAAUAAAAGTT against Zadh2 | inactive: -1.29
CCUCUCUGACUGGUUGAAGTT against Olfr345 | inactive: 0.102
GGUCAUGAGUGAAUAAUGATT against Arih1 | inactive: -0.339
GCCAAUCUGAACUUGUGUUTT against Plet1 | inactive: -0.931
GGCUAAGGGUAACGUGCUGTT against Bri3 | inactive: -0.263
GGAGAGACUGUGAAUACAUTT against Ly96 | inactive: 1.07
CGUGGGAUCGAAUACAUAUTT against Iapp | inactive: -0.453
GGAGAGGAGGUGGAAAAACTT against Rab11fip4 | inactive: -1.89
CCAUCUAACCAAAUUCUGGTT against Agpat1 | inactive: 0.371
CCUAAACGAGGCCUUCGACTT against Ferd3l | inactive: -0.272
GCAUUGAAUUGCACUAUUGTT against Ints13 | inactive: -1.15
CGCAAGGAAAUGCUUGACCTT against Elmo3 | inactive: -0.829
